The whole screen tested about 390,000 compounds, of which about 910 (0.23%) were called active. This list was built around the results that the source calls inconclusive (neither active nor inactive); the mix of calls is not that of the screen. The call rests on the fitted dose curve; in most records, active means well fitted inhibition curve with a large enough effect; inconclusive means small, poorly fitted or top-dose-only effect; inactive means no such curve, though single readings can be large or run the other way. Potencies beside an inconclusive call are fits to weak or partial responses and may not hold up.
biological target: Ubiquitin carboxyl-terminal hydrolase 1 (Homo sapiens) (UniProt O94782); experiment: Inhibitors of USP1/UAF1: Primary Screen; details: recombinant USP1/UAF1, Ub-Rhodamine cleavage fluorescence; series mostly up to 57.1 µM; further: nearly all actives have a fitted effect of over 60% in size
Outline: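 Step one: compound is pinned into 1nM USP1/UAF1 in HEPES pH 7.8 buffer with TCEP. Step two: 15 min room-temperature incubation. Step three: Ub-Rho (150nM final) starts cleavage, tracked by fluorescence over six one-minute reads.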
Potency means the concentration at half of the fitted maximal effect.

The chains behind the UniProt entries cited, without tags or fusion partners. Where a name states a change or a piece, a line headed by the entry shows the natural chain unless it says otherwise.
UniProt O94782: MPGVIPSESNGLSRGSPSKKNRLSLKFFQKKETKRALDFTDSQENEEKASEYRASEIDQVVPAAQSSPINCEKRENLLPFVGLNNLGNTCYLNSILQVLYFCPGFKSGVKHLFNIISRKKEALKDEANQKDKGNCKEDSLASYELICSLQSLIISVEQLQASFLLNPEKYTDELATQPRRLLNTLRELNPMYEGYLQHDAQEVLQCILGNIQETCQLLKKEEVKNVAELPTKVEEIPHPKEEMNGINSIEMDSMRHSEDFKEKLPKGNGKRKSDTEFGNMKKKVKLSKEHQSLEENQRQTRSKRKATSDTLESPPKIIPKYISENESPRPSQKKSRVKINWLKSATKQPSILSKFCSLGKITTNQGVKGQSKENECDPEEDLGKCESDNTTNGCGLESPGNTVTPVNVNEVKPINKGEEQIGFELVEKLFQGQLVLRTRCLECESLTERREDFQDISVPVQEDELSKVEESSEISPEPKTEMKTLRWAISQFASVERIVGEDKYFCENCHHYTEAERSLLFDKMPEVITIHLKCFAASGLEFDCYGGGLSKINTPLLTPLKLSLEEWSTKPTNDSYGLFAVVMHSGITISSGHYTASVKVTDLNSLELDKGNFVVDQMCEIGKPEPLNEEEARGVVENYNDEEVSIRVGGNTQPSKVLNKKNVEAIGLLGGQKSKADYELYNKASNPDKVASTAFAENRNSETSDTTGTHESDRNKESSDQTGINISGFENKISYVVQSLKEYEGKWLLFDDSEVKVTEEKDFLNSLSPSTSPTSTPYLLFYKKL

Potency, inconclusive:
O=C(c1cccs1)N(Cc1cccnc1)c1nc2c(F)cc(F)cc2s1 50.1 µM [inhibitor, partial curve, poor fit]
Cc1cc(C)nc(SCc2nnc(SCC(=O)O)n2-c2ccccc2)n1 7.08 µM [inhibitor, partial curve, poor fit]
COc1ccc(NC(=O)C2=C(C)Nc3ncnn3C2c2ccc[nH]2)cc1 (centres undefined) 0.708 µM [inhibitor, full curve, poor fit]
CCOc1ccc(-c2cc3nc(C4CCN(C(=O)OC(C)(C)C)CC4)c(C(=O)Nc4c(C)cccc4C)cn3n2)cc1 39.8 µM [inhibitor, partial curve, poor fit]
C#CC(c1ccccc1)(c1ccccc1)n1ccnc1 35.5 µM [inhibitor, partial curve]
CC(C)OCCCn1c(=O)c2ccccc2n2c(-c3ccc(F)cc3)nnc12 7.94 µM [inhibitor, partial curve, poor fit]
Cc1ccc(S(=O)(=O)CCSc2nc(C)cc(C(F)(F)F)c2C#N)cc1 35.5 µM [inhibitor, partial curve, poor fit]
CC(=O)c1cccc(NC(=O)N2CCC(NC(=O)c3ccco3)CC2)c1 44.7 µM [inhibitor, single point]
COc1ccc(NC(=O)C(=O)NCCc2csc(-c3ccc(Cl)cc3)n2)cc1OC 0.891 µM [inhibitor, full curve]
CCOC(=O)[C@@H]1[C@H]2COc3ccc(Br)cc3[C@@H]2N2C(=O)N(c3ccc(C(F)(F)F)cc3)C(=O)[C@@]12C 20 µM [inhibitor, partial curve]
CCCC(=O)NCC1(N(C)C)CCCCC1 5.62 µM [inhibitor, partial curve, poor fit]
Cc1ccc(SCCNC(=O)CN(c2ccccc2)S(=O)(=O)N(C)C)cc1 25.1 µM [inhibitor, partial curve]
CCN(C[C@H]1N[C@@](CC)(C(=O)OC)[C@H]2C(=O)N(C)C(=O)[C@@H]12)C(C)=O 39.8 µM [inhibitor, partial curve, poor fit]
Cc1ccccc1NS(=O)(=O)c1ccc(C(=O)N2CCN(S(=O)(=O)c3ccccc3)CC2)cc1 0.355 µM [inhibitor, full curve]
COC(=O)c1ccc(NC(=O)CSc2nc(=O)[nH]c3c2CCCC3)cc1 50.1 µM [inhibitor, partial curve, poor fit]
CCN1C(=NCc2cccc(Cl)c2)N[C@@H](c2cccc(F)c2)C(C(=O)OC)=C1C 50.1 µM [inhibitor, partial curve, poor fit]
CCc1cnc2c(c1SCC(=O)c1ccccc1)c(=O)n(C)c(=O)n2C 0.224 µM [inhibitor, full curve, poor fit]
COc1ccc(-c2noc(CCC(=O)N3CCN(c4cc(C)ccc4C)CC3)n2)cc1 25.1 µM [inhibitor, partial curve]
CCN1CCc2nc3sc(C(=O)Nc4cccc(Cl)c4C)c(N)c3cc2C1 3.55 µM [inhibitor, full curve, poor fit]
Cc1cccc(NS(=O)(=O)c2cccc(C(=O)N3CCCC(C(F)(F)F)C3)c2)c1 (centres undefined) 3.55 µM [inhibitor, full curve, poor fit]
Cc1ccc(NC(=O)c2cc(S(=O)(=O)N(C)C)ccc2N2CCCC2)cc1S(=O)(=O)N(C)C 3.98 µM [inhibitor, full curve]
CCCCn1c(N)c(N(CC(C)C)C(=O)Cc2ccc(S(=O)(=O)N3CCOCC3)s2)c(=O)[nH]c1=O 0.891 µM [inhibitor, full curve, poor fit]
C=C1C(=O)O[C@H]2C[C@H]1[C@@H](OC(C)=O)C/C(C)=C/CC/C(C)=C\CC[C@]2(C)O 50.1 µM [inhibitor, partial curve, poor fit]
CCSc1nc(N2CCCCC2)c2c(c1C#N)CCCC2 50.1 µM [inhibitor, partial curve, poor fit]
Cc1ccc(-n2ncc(C(=O)NCc3ccc4c(c3)OCO4)c2C2CCN(C(=O)OC(C)(C)C)CC2)c(C)c1 3.98 µM [inhibitor, full curve, poor fit]
CNC(=O)NC(=O)C(c1ccccc1)N(C)CC1COc2ccccc2O1 (centres undefined) 5.01 µM [inhibitor, single point]
O=c1cc(N=Nc2ccc(Cl)cc2)[nH]c(=O)[nH]1 15.8 µM [inhibitor, partial curve]
CN1CCN(C(=O)c2cnn(-c3ccc(F)cc3F)c2C2CCN(C(=O)OC(C)(C)C)CC2)CC1 5.01 µM [inhibitor, full curve, poor fit]
Cc1cc(C)cc(N(CC(=O)NCCc2ccc(Cl)cc2)S(=O)(=O)c2c(C)noc2C)c1 3.16 µM [inhibitor, full curve, poor fit]

A portion from the list above, as a working copy:
Potency, inconclusive:
CCN1CCc2nc3sc(C(=O)Nc4cccc(Cl)c4C)c(N)c3cc2C1 3.55 µM [inhibitor, full curve, poor fit]
Cc1cccc(NS(=O)(=O)c2cccc(C(=O)N3CCCC(C(F)(F)F)C3)c2)c1 (centres undefined) 3.55 µM [inhibitor, full curve, poor fit]
Cc1ccc(NC(=O)c2cc(S(=O)(=O)N(C)C)ccc2N2CCCC2)cc1S(=O)(=O)N(C)C 3.98 µM [inhibitor, full curve]

Following part:

Potency, inactive:
N#C/C(=C\c1ccco1)c1nc2ccccc2s1
Cc1nnc(NC(=O)CSc2nnc(-c3ccco3)n2C(C)C)s1
COc1cccc(-c2cn3nc4c(nc3n2)CCCC4)c1
COc1cc(/C=C2\SC(=S)N(CCC(=O)Nc3ccc(O)cc3)C2=O)cc(OC)c1OC
O=C(COC(=O)/C=C/c1ccccc1)NCc1ccco1
Cc1ccccc1OCC(=O)Nc1ccc(S(=O)(=O)N(Cc2ccccc2)c2ccccc2)cc1
CCC1CCc2c(sc(NC(=O)c3ccco3)c2C(N)=O)C1 (centres undefined)
O=C1C2C3CC(C2C(=O)N1c1cccc(Cl)c1)[C@H](O)C3O (some centres undefined)
COc1ccc(-c2noc(=O)n2Cc2cc(C)ccc2C)cc1
S=C(NCc1ccco1)NC1CCCc2ccccc21 (centres undefined)

From PubChem BioAssay AID743255 (National Center for Advancing Translational Sciences (NCATS), 2014)
